Measurements as given in US8951760B2, “Method for producing an L-amino acid” (priority 2010, dated 2015).
For at least one compound, name, drawing or mass did not settle the structure.

Columns and labels:
[1] = tested on: L-lysine-producing bacterium, WC196 LC/pCABD2 strain; experiment: L-lysine production culture in small fermentation tank with addition of thiourea or urea to the medium; type: cell-based, Escherichia coli; details: carbon source fatty acid; compared to thiourea-free and urea addition conditions
Experimental: The glycerol stock of the L-lysine-producing bacterium, WC196 LC/pCABD2 strain, was inoculated in an amount of one loop to the LB agar medium (1% of tryptone, 0.5% of yeast extract, 0.5% of sodium chloride, 1.5% of agarose) containing 20 mg/L of streptomycin, and cultured at 37° C. for 24 hours as static culture.
The cells grown in the aforementioned preculture were scraped off from the medium, suspended in a 0.85% NaCl aqueous solution, and inoculated into 300 mL of MS glucose liquid fermentation medium or MS fatty acid liquid fermentation medium having the following compositions and contained in a small fermentation tank having a total volume of 1 L at a turbidity of 0.04 measured at a wavelength of 600 nm to start the culture. With the MS glucose liquid fermentation medium, the culture was performed at a culture temperature of 37° C. and a stirring rate of 300 rpm for 16 hours with the addition of 20 mg/L of streptomycin and aeration of compressed air sterilized with a sterilization filter at 1 vvm. Furthermore, pH was maintained at 6.7 with ammonia gas. With the MS fatty acid liquid fermentation medium, the culture was performed at a culture temperature of 37° C. and a stirring rate of 700 rpm for 42 hours with addition of 20 mg/L of streptomycin and aeration of compressed air sterilized with a sterilization filter at 1 vvm. Furthermore, pH was maintained at 6.7 with ammonia gas.
The culture was performed with adding 1 mM or 5 mM thiourea as an antioxidant at the time of the start of the culture. […]
During the culture, an appropriate volume of each liquid medium was sampled, and the amount of L-lysine in the culture supernatant was measured with a Biotech Analyzer AS310 (Sakura SI). […] Furthermore, a Tween 80 solution was added at a final concentration of 1.0% (v/v) immediately after the end of the culture, the resultant was appropriately diluted, and turbidity was measured at a wavelength of 600 nm to measure cell amount at the time of the end of the culture.

[2] = tested on: L-lysine-producing bacterium, WC196 LC/pCABD2 strain; experiment: Measurement of intracellular hydrogen peroxide concentration at the end of L-lysine production culture (HPF fluorescence); type: cell-based, Escherichia coli; details: compared to thiourea-free and urea addition conditions, FIG. 8

## NC(N)=S [Thiourea, thiourea]
[1]
  L-lysine production: significantly higher
  cell turbidity: significantly higher
  time within which the fatty acid added to the medium was consumed: significantly shorter
[2]; carbon source fatty acid
  intracellular hydrogen peroxide concentration: significantly lower
[2]; carbon source glucose
  intracellular hydrogen peroxide concentration: significantly lower
